Library screening results

Protein sequences, listed by entry. Tags and fused reporters are not part of them.
UniProt E9BF75, entry or part of it: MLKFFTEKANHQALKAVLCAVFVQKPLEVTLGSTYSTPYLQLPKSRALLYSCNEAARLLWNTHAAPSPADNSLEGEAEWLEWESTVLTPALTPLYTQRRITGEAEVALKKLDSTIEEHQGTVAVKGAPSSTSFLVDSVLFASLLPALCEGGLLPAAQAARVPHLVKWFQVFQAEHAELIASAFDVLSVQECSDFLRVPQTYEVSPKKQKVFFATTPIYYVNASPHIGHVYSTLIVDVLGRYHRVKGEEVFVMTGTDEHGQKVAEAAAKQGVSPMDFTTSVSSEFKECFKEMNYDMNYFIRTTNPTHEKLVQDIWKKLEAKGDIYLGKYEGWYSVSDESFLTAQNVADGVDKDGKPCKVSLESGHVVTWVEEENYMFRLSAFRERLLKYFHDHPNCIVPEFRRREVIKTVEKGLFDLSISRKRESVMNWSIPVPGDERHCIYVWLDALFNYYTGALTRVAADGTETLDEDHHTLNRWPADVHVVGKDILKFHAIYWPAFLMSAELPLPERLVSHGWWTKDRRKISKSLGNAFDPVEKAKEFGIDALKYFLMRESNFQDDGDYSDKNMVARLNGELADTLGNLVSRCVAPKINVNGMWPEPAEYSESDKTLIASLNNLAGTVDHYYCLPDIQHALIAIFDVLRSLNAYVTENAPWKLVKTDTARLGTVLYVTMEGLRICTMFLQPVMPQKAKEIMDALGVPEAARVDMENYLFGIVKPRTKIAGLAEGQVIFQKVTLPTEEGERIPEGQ

Source: ChEMBL document CHEMBL3988442, “University of Dundee, Small-Polar-MMV Screening Library” (2021).

All values are in %.
The record does not define 0% and 100%; most values in the screen are far below 50% and negative numbers occur (in some assays of this library far below -100).
The compounds are a random part of those screened.

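Primary screen of methionyl-tRNA synthetase; the read-out is not stated. Target: Methionyl-tRNA synthetase (putative), Leishmania donovani (UniProt E9BF75). The test concentration is not given. Values are per cent inhibition. Size under these conditions: about 68,000 compounds, about 24 of them at 50% or above in at least one test.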

Cc1cc(C(=O)N2CCCC3(C=Cc4ccccc4O3)CC2)cc(=O)[nH]1 (stereo unspecified) gave 8.675%. Result for N#CCCN(CCC#N)C(=O)c1ccc(OCC2CC2)cc1 was 7.711%. For CCc1nnc(Nc2cc(C)nc(C3CN(C(=O)C(C)C)CCO3)c2)s1 (stereo unspecified) the result was 5.814%. With CC(=O)N1CC(=O)N(c2ccccc2)CC12CCN(Cc1ccsc1)C2 (stereo unspecified) the screen gave 14.81%. Result for COC(=O)NCCCC(=O)NC1(c2cccc(Cl)c2)CC1 was 9.756%. For Cc1ccc2cccc(C(=O)NCC3CCN(C(C)C)C3)c2n1 (stereo unspecified) the result was 14.97%. Result for CCOc1cc(-c2cc(=O)n3c(n2)CCCCC3)ccc1O was 4.974%. CCN(Cc1ccc2c(c1)OCO2)Cc1nc(C)no1 gave 3.268%.

Result for O=C(NC1=NCCCN1c1ccc(Cl)cc1)c1cccc(Cl)c1 was 3.937%. With CC(C)(NC(=O)c1cnc(-c2ccccc2F)s1)C(N)=O the screen gave 9.353%. For CN1CC(=O)N(c2ccsc2)CC12CCN(C(=O)c1ccc[nH]1)C2 (stereo unspecified) the result was -2.667%. CC(=O)Nc1ccc(CNC2CC(=O)N(Cc3cccc(F)c3)C2)cc1 (stereo unspecified) read 19.2%. With Cc1cnn(CC2CCCCN2C(=O)c2ccc(N(C)C)nc2)c1 (stereo unspecified) the screen gave 9.945%. N#Cc1ccccc1C(=O)N1CCC2(CC(=O)NC2=O)C1 (stereo unspecified) read 6.884%. Cc1cccc(C)c1OCCNC(=O)C(C)n1cncn1 (stereo unspecified) read 20%. For Clc1ccc(CN2CCC(C3CCN(Cc4cccnc4)CC3)C2)cc1 (stereo unspecified) the result was 15.85%.

Result for O=C(COc1ccc(Br)cc1F)Nc1cn[nH]c1 was 3.593%. With CCc1nccn1-c1cccc(C2CCCN2)n1 (stereo unspecified) the screen gave 17.55%. N#Cc1cc(NC(=O)c2cscn2)ccc1N1CCC(O)CC1 gave 9.783%. For Cc1cnccc1CCNC(=O)Nc1cnc(N(C)C)nc1 the result was 2.915%. COc1cc(CN(C)CCc2ccncc2)c(SC)cc1OC gave 11.17%. With COCC1COCCC12CCN(C(=O)Cc1cccc(OC)c1)CC2 (stereo unspecified) the screen gave 17.58%. Result for CC(C)c1nn(C)c(N(C)C)c1CNCCC(=O)NC1CCCCC1 was 8.101%. Cc1nc(CCNC2CCN(Cc3ccccc3)C2)sc1C (stereo unspecified) gave 9.971%.

Cc1occc1C(=O)N1CCCC(c2nncn2C)C1 (stereo unspecified) gave 18.78%. Result for COCCN1CCc2c(cnc(-c3ccccc3)c2C(=O)O)C1 was 9.804%. CCCOc1cccc(C(=O)Oc2cc(=O)n3cccc(C)c3n2)c1 read 20.99%. With COCCN1C[C@@H]2CN(Cc3ccsc3)CCC[C@]2(C(=O)O)C1 the screen gave 16.67%.

3 of the entries, repeated:

* O=C(NC1=NCCCN1c1ccc(Cl)cc1)c1cccc(Cl)c1 | 3.937%
* Clc1ccc(CN2CCC(C3CCN(Cc4cccnc4)CC3)C2)cc1 (stereo unspecified) | 15.85%
* Cc1cnn(CC2CCCCN2C(=O)c2ccc(N(C)C)nc2)c1 (stereo unspecified) | 9.945%